Series [1] is described as follows: general procedure: Fmoc solid-phase peptide synthesis; Wang resin; 2-chlorotrityl chloride resin (Clt resin); DIPCDI/DMAP (loading of Wang resin). Particulars: whole synthesis; for final HPLC purity: analytical HPLC.
The next series can be described thus: peptide synthesis. Particulars: coupling step.
A short description of series [2]: general procedure: Fmoc solid-phase peptide synthesis; Fmoc-NH-C6H4-CO-Clt resin; DIPCDI/DMAP (loading of Wang resin). Particulars: whole synthesis.

For part of these data: One purity is given for all peptides; the source may state it once. A value given as a limit tells only on which side of the number the result lay.

For H-Gln-Val-Leu-Pns-Asp-Ala-Gly-Phe-OH, the “final HPLC purity” value in series [1] was more than 98%. In addition, the isolated yield is listed as 47% in series [1] (run 1) and 68% in series [1] (run 2).

Take H-Glu-Ile-Leu-Pns-Asp-Ala-Glu-Phe-OH: in series [1], the isolated yield is recorded as 68% and the “final HPLC purity” value is listed as more than 98%.

In the case of H-Glu-Leu-Leu-Pns-Asp-Ala-Glu-Phe-OH, in series [1], the isolated yield is on record as 58% and the “final HPLC purity” value is on record as more than 98%.

Turning to H-Glu-Met-Leu-Pns-Asp-Ala-Glu-Phe-OH, in series [1], the isolated yield amounted to 60% and the “final HPLC purity” value is listed as more than 98%.

As to “H-Glu-Phe-Leu-Pns-Asp-Ala-Glu-Phe-OH (DAEF; N-terminal Glu-Val-Leu-Apns; printed: Asp-Ala-Glu-Phe-)”, in series [1], the isolated yield was 58% and the “final HPLC purity” value was more than 98%.

As for H-Glu-Val-Asn-Nst-Asp-Ala-Glu-Phe-OH, in series [1], the isolated yield was 52% and the “final HPLC purity” value is recorded as more than 98%.

For H-Glu-Val-Asn-Pns-Asp-Ala-Glu-Phe-OH, in series [1], the isolated yield turned out to be 73% and the “final HPLC purity” value is more than 98%.

Consider H-Glu-Val-Asp-Pns-Asp-Ala-Glu-Phe-OH, for which, in series [1], the isolated yield is recorded as 64% and the “final HPLC purity” value is listed as more than 98%.

As for H-Glu-Val-Gln-Pns-Asp-Ala-Glu-Phe-OH, in series [1], the isolated yield was determined as 63% and the “final HPLC purity” value is more than 98%.

Regarding H-Glu-Val-Glu-Pns-Asp-Ala-Glu-Phe-OH, in series [1], the isolated yield is listed as 48% and the “final HPLC purity” value is recorded as more than 98%.

As for H-Glu-Val-Gly-Pns-Asp-Ala-Glu-Phe-OH, in series [1], the isolated yield came to 48% and the “final HPLC purity” value was more than 98%.

Consider “H-Glu-Val-Leu-Apns-Ala-Ala-Glu-Phe-OH (AFEF; N-terminal Glu-Val-Leu-Pns; printed: Ala-Phe-Glu-Phe-)”, for which, in series [1], the isolated yield was found to be 36% and the “final HPLC purity” value is reported as more than 98%.

For the substance “H-Glu-Val-Leu-Apns-Asn-Ala-Glu-Phe-OH (AEEF; N-terminal Glu-Val-Leu-Pns; printed: Ala-Glu-Glu-Phe-)”, in series [1], the isolated yield was determined as 63% and the “final HPLC purity” value is more than 98%.

Turning to H-Glu-Val-Leu-Apns-Asp-Ala-Glu-Phe-OH, in series [1], the isolated yield turned out to be 41% and the “final HPLC purity” value is recorded as more than 98%.

For the substance “H-Glu-Val-Leu-Apns-Dmt-Ala-Glu-Phe-OH (DALF; N-terminal Glu-Val-Leu-Pns; printed: Asp-Ala-Leu-Phe-)”, in series [1], the isolated yield worked out at 28% and the “final HPLC purity” value is listed as more than 98%.

Take “H-Glu-Val-Leu-Apns-Gln-Ala-Glu-Phe-OH (DAVF; N-terminal Glu-Val-Leu-Pns; printed: Asp-Ala-Val-Phe-)”: in series [1], the isolated yield was 63% and the “final HPLC purity” value is on record as more than 98%.

For “H-Glu-Val-Leu-Apns-Glu-Ala-Glu-Phe-OH (DAQF; N-terminal Glu-Val-Leu-Pns; printed: Asp-Ala-Gln-Phe-)”, in series [1], the isolated yield stood at 59% and the “final HPLC purity” value is more than 98%.

Turning to H-Glu-Val-Leu-Pns-Ala-Ala-Glu-Phe-OH, in series [1], the isolated yield is 43% and the “final HPLC purity” value is given as more than 98%.

For H-Glu-Val-Leu-Pns-Ala-Glu-Glu-Phe-OH, in series [1], the isolated yield is reported as 58% and the “final HPLC purity” value is on record as more than 98%.

In the case of H-Glu-Val-Leu-Pns-Ala-Leu-Glu-Phe-OH, in series [1], the isolated yield is on record as 42% and the “final HPLC purity” value is more than 98%.

With H-Glu-Val-Leu-Pns-Ala-Phe-Glu-Phe-OH, in series [1], the isolated yield came out at 31% and the “final HPLC purity” value was more than 98%.

For “H-Glu-Val-Leu-Pns-Ala-Val-Glu-Phe-OH (DAFF; N-terminal Glu-Val-Leu-Pns; printed: Asp-Ala-Phe-Phe-)”, in series [1], the isolated yield is 27% and the “final HPLC purity” value was more than 98%.

Take H-Glu-Val-Leu-Pns-Asn-Ala-Glu-Phe-OH: in series [1], the isolated yield is listed as 44% and the “final HPLC purity” value is on record as more than 98%.

As for H-Glu-Val-Leu-Pns-Asp-Ala-Gln-Phe-OH, in series [1], the isolated yield was 77% and the “final HPLC purity” value was more than 98%.

As for “H-Glu-Val-Leu-Pns-Asp-Ala-Glu-Gly-OH (DAEG; N-terminal Glu-Val-Leu-Pns; printed: Asp-Ala-Glu-Gly-)”, in series [1], the isolated yield came to 35% and the “final HPLC purity” value is recorded as more than 98%.

Take H-Glu-Val-Leu-Pns-Asp-Ala-Glu-OH: in series [1], the isolated yield is 37% and the “final HPLC purity” value is given as more than 98%.

For H-Glu-Val-Leu-Pns-Asp-Ala-Glu-Phe-OH, in series [1], the isolated yield was 39% and the “final HPLC purity” value is on record as more than 98%.

Regarding H-Glu-Val-Leu-Pns-Asp-Ala-Gly-Phe-OH, in series [1], the isolated yield was found to be 40% and the “final HPLC purity” value is more than 98%.

As for H-Glu-Val-Leu-Pns-Asp-Ala-Phe-Phe-OH, in series [1], the isolated yield is given as 49% and the “final HPLC purity” value is more than 98%.

H-Glu-Val-Leu-Pns-Asp-Ala-Val-Phe-OH: in series [1], the isolated yield was determined as 27% and the “final HPLC purity” value is given as more than 98%.

Take “H-Glu-Val-Leu-Pns-Asp-Gly-Glu-Phe-OH (DGEF; N-terminal Glu-Val-Leu-Pns; printed: Asp-Gly-Glu-Phe-)”: in series [1], the isolated yield turned out to be 44% and the “final HPLC purity” value is recorded as more than 98%.

As for H-Glu-Val-Leu-Pns-Asp-OH, in series [1], the isolated yield is reported as 40% and the “final HPLC purity” value is recorded as more than 98%.

As for H-Glu-Val-Leu-Pns-Dmt-Ala-Glu-Phe-OH, in series [1], the isolated yield was 21% and the “final HPLC purity” value is more than 98%.

H-Glu-Val-Leu-Pns-Glu-Ala-Glu-Phe-OH: in series [1], the isolated yield was 36% and the “final HPLC purity” value is reported as more than 98%.

As to H-Glu-Val-Leu-Pns-Gly-Ala-Glu-Phe-OH, in series [1], the isolated yield is reported as 63% and the “final HPLC purity” value is listed as more than 98%.

In the series “peptide synthesis”, H-Glu-Val-Leu-Pns-NH-Bzl had a step yield of 23%. For the same substance, the isolated yield in series [2] was found to be 56%. The “final HPLC purity” value in series [1] is given as more than 98%.

Take “H-Glu-Val-Leu-Pns-OH (GAEF; N-terminal Glu-Val-Leu-Pns; printed: Gly-Ala-Glu-Phe-)”: in series [1], the isolated yield is reported as 39% and the “final HPLC purity” value is more than 98%.

With “H-Glu-Val-Lys-Pns-Asp-Ala-Glu-Phe-OH (EAEF; N-terminal Glu-Val-Leu-Pns; printed: Glu-Ala-Glu-Phe-)”, in series [1], the isolated yield came to 88% and the “final HPLC purity” value is more than 98%.

Consider “H-Glu-Val-Met-Pns-Asp-Ala-Glu-Phe-OH (AAEF; N-terminal Glu-Val-Leu-Pns; printed: Ala-Ala-Glu-Phe-)”, for which, in series [1], the isolated yield is listed as 51% and the “final HPLC purity” value was more than 98%.

As to H-Gly-Val-Leu-Pns-Asp-Ala-Glu-Phe-OH, in series [1], the isolated yield amounted to 78% and the “final HPLC purity” value is listed as more than 98%.

Regarding H-Leu-Pns-Asp-Ala-Glu-Phe-OH, in series [1], the isolated yield worked out at 49% and the “final HPLC purity” value is recorded as more than 98%.

Consider “H-Pns-Asp-Ala-Glu-Phe-OH (DAEG; N-terminal Glu-Val-Leu-Pns; printed: Asp-Ala-Glu-Gly-)”, for which, in series [1], the isolated yield is reported as 49% and the “final HPLC purity” value is on record as more than 98%.

For “H-Val-Leu-Pns-Asp-Ala-Glu-Phe-OH (DGEF; N-terminal Glu-Val-Leu-Pns; printed: Asp-Gly-Glu-Phe-)”, in series [1], the isolated yield was 61% and the “final HPLC purity” value is more than 98%.

Take “H-homoGlu-Val-Leu-Pns-Asp-Ala-Gly-Phe-OH”: in series [1], the “final HPLC purity” value is recorded as more than 98%. The isolated yield in series [1] (run 1) stood at 22%; in series [1] (run 2), 37%.

In the case of glt-Val-Leu-Pns-Asp-Ala-Gly-Phe-OH, in series [1], the isolated yield turned out to be 22% and the “final HPLC purity” value is more than 98%.

Turning to β-ODap-Val-Leu-Pns-Asp-Ala-Gly-Phe-OH, the “final HPLC purity” value in series [1] was more than 98%. Besides, the isolated yield in series [1] (run 1) is recorded as 18%; in series [1] (run 2), 19%.

The values above are taken from patent US7312188B2 (priority 2003, dated 2007).
